Laboratory results: PubChem BioAssay AID2685 (National Center for Advancing Translational Sciences (NCATS), 2010)
The list shows a part of the results. These are further read-outs of the screen, such as a control signal, another cell line or another target. No call is given for them. Most of these compounds were active or inconclusive in the main read-out, so they are no random draw. The note in brackets gives the kind of curve behind each potency; many fits are weak.

Test: qHTS Assay for Lipid Storage Modulators in Drosophila S3 Cells;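 as to cell number change: cells counted by Cell Tracker Red CMTPX staining in the red channel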
Settings: BODIPY lipid droplet fluorescence, 18-24 h; for cell number change: measured here: cell count max response, cells fed with added oleic acid
Procedure, shortened: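 Drosophila S3 cells got compounds at several concentrations plus oleic acid (400 uM solution). Laser-scanning cytometry with 488 nm excitation read lipid droplets at 500-530 nm and cells at 575-640 nm. Percent activity was relative to 20 uM Triacsin C.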

[1] = measured here: lipid fluorescence (Fed channel) AC50, cells fed with added oleic acid
[2] = measured here: cell number channel AC50, cells fed with added oleic acid

## COCCCNC(=S)N/N=C/c1ccc(O)cc1O
  cell number change: -9.68%
[1]
  AC50: 1.16 µM [falling, full curve]

## Cc1ccc(NC(=O)CN2C(=O)S/C(=C\c3cc(Cl)c(OCC(=O)O)c(Cl)c3)C2=O)cc1
  cell number change: 1.76%

## Cc1ccc(N2CC(C(=O)Nc3ccccc3C(=O)N3CCOCC3)CC2=O)cc1 (configuration not stated)
  cell number change: -15.5%
[1]
  AC50: 3.26 µM [rising, partial curve]

## CCOC(=O)C1CCN(Cc2cccc(OC)c2)CC1
  cell number change: 12.8%
[1]
  AC50: 6.51 µM [rising, full curve, poor fit]

## COc1ccccc1C(=O)Nc1cc(Cl)ccc1-n1cncn1
  cell number change: 30.1%

## O=C1CC(N2CCN(c3ccc(O)cc3)CC2)C(=O)N1c1ccc2c(c1)OCO2 (configuration not stated)
  cell number change: 27%
[1]
  AC50: 0.13 µM [falling, full curve, poor fit]

## COc1ccc(CNC(=O)N2CCN(C(=O)c3ccccc3)CC2)cc1
  cell number change: -18.1%

## O=C1c2[nH]nc(-c3ccccc3O)c2C(c2ccc(F)cc2)N1Cc1ccco1 (configuration not stated)
  cell number change: -51.1%
[2]
  AC50: 18.4 µM [falling, single point]
[1]
  AC50: 29.1 µM [falling, single point]

## O=C(O)CSc1nc2c(c(C(F)(F)F)n1)CCc1ccccc1-2
  cell number change: 25.2%
[2]
  AC50: 0.92 µM [rising, full curve]
[1]
  AC50: 0.92 µM [rising, full curve]

## CCn1c(COc2ccccc2OC)nnc1SCC#N
  cell number change: 22.6%

## COc1ccc(-n2nc(C(N)=O)c(O)cc2=O)cc1
[1]
  AC50: 0.58 µM [rising, single point]

## CCN(CC)C(=O)CN1C(=O)NC2(CCc3ccccc3C2)C1=O (configuration not stated)
  cell number change: -46.5%

## O=[N+]([O-])c1ccccc1OCCOCCOc1cccc2cccnc12
  cell number change: -10.1%
[1]
  AC50: 2.06 µM [rising, full curve]

## COC(=O)CNC(=O)C(Cc1ccccc1)NS(=O)(=O)c1ccc2c(c1)c(=O)n(C)c(=O)n2C (configuration not stated)
  cell number change: -31.8%
[2]
  AC50: 16.4 µM [falling, partial curve]
[1]
  AC50: 29.1 µM [falling, single point]

## CCOc1ccc(NC(=O)CN(C)C(=O)c2ccccc2CCc2ccccc2)cc1OCC
  cell number change: 35.4%
[2]
  AC50: 2.31 µM [rising, partial curve]
[1]
  AC50: 4.61 µM [rising, partial curve]

## COCc1cc(CNC(=O)C2CCC(=O)N(Cc3cccc(OC)c3)C2)[nH]n1 (configuration not stated)
  cell number change: 16%

## CSc1nccc(-c2nn(-c3ccc(C)cc3)ccc2=O)n1
  cell number change: 89.7%
[2]
  AC50: 5.8 µM [rising, full curve]

## CCOc1cc(/C=C(\C#N)c2nc(-c3cccs3)c(NC(C)=O)s2)ccc1O
  cell number change: -30.1%

## O=C(CCCOc1ccc(Cl)cc1)N1CCCCCC1
  cell number change: -33.3%
[2]
  AC50: 23.1 µM [falling, single point]

## CCCCNc1c(N)n(CCC)c(=O)[nH]c1=O
[2]
  AC50: 0.0731 µM [rising, full curve, poor fit]

## O=P(c1ccccc1)(c1ccccc1)C1CCCO1 (configuration not stated)
  cell number change: -35.7%
[2]
  AC50: 18.4 µM [falling, single point]
[1]
  AC50: 5.8 µM [falling, full curve, poor fit]

## Cc1ccc(NC(=O)CC2OC(=O)c3ccccc32)cc1S(=O)(=O)N1CCOCC1 (configuration not stated)
  cell number change: 5.23%
[1]
  AC50: 18.4 µM [rising, partial curve, poor fit]

## CCCCc1nc(SCc2ccc([N+](=O)[O-])cc2)n[nH]1
  cell number change: 22.9%

## COc1cccc(C(=O)COC(=O)C(C)N2C(=O)C3C4C=CC(C4)C3C2=O)c1 (configuration not stated)
  cell number change: 20.1%
[1]
  AC50: 0.013 µM [rising, full curve]

## Cc1ccc(CN2C(=O)C(=O)N(CC(N)=O)C2=O)cc1
  cell number change: 26.5%
[1]
  AC50: 8.2 µM [rising, partial curve]

## COc1ccc(S(=O)(=O)N2CCC(C(=O)NCCC3=CCCCC3)CC2)cc1C
[1]
  AC50: 2.91 µM [falling, partial curve, poor fit]

## CCc1noc(C)c1C(=O)Nc1ccc(C#N)cc1
  cell number change: -1.27%
[2]
  AC50: 0.146 µM [falling, full curve]
[1]
  AC50: 6.51 µM [falling, single point]

## CN(C)Cc1c(O)ccc2occ(C(O)c3ccccc3)c12 (configuration not stated)
  cell number change: -28.3%
[2]
  AC50: 1.84 µM [falling, full curve, poor fit]

## C=C(C)COc1ccc(-c2[nH]ncc2-c2ccc(Br)cc2)c(O)c1
  cell number change: -58.2%
[2]
  AC50: 20.6 µM [falling, single point]
[1]
  AC50: 18.4 µM [falling, partial curve]

## O=C(CNC(=O)c1ccccc1Br)N/N=C/c1cccs1
  cell number change: 16.3%

## Cc1ccc(NC(=O)C2CCCN2C(=O)OCc2ccccc2)cc1C (configuration not stated)
  cell number change: 6.94%

## CCOc1ccc(NC(=O)CN(C)C(=O)C2CC(=O)N(c3ccc4c(c3)OCCO4)C2)cc1OCC (configuration not stated)
  cell number change: 19.8%
[1]
  AC50: 13 µM [rising, partial curve]

## CCOc1ccc(/C=N/O)cc1
  cell number change: 18.7%

## Oc1c(I)cc(Cl)c2cccnc12
  cell number change: -44.3%
[2]
  AC50: 23.1 µM [falling, partial curve]
[1]
  AC50: 32.6 µM [falling, partial curve]

## CCCN1CCN(CCCNC(=O)CCN2C(=O)COc3ccccc32)CC1
  cell number change: -5.42%
[1]
  AC50: 6.51 µM [falling, single point]

## Cc1cc(O)c(/C=N/c2ccccn2)c(=O)o1
  cell number change: -183%
[2]
  AC50: 29.1 µM [falling, partial curve]
[1]
  AC50: 23.1 µM [falling, partial curve]

## CC1(C)CC(=O)c2sc(NS(C)(=O)=O)nc2C1
  cell number change: -1.34%
[1]
  AC50: 2.06 µM [falling, partial curve]

## Cc1ccc2nc(CCc3nc4ccc(C)cc4[nH]3)[nH]c2c1
  cell number change: -15.4%
[1]
  AC50: 20.6 µM [falling, single point]

## CC(=O)NC12CC3CC(C1)CC(C(=O)N(C)Cc1cccc(Cl)c1Cl)(C3)C2
  cell number change: 20.5%

## CCOC(=O)C1=C(Cn2ccc(C(F)(F)F)n2)NC(=O)NC1c1ccc2c(c1)OCO2 (configuration not stated)
  cell number change: 4.92%

## Nc1cc(N)nc(SCc2cccnc2)n1
  cell number change: 56.7%
[2]
  AC50: 10.3 µM [rising, partial curve]
[1]
  AC50: 16.4 µM [rising, partial curve]

## CCCN1C(=O)/C(=C/c2ccc(N3CCCC3)c(C)c2)NC1=S
  cell number change: -28.2%
